Record: PubChem BioAssay AID686938 (Drosophila RNAi Screening Center, 2013)
Purpose: 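Looking for CRAC channel components and the factors controlling them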 (primary screen). Cells: Drosophila S2R+ cells. Reagents: long dsRNA against Drosophila genes, about 0.25 µg dsRNA per well, roughly 10,000 cells. Duration: 5 days of knock-down before the calcium assay. Challenge: thapsigargin (SERCA pump blocker) to empty calcium stores; entry signal taken 4 min after adding it. Measured: 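Duplicate raw fluo-4 intensities per well from a plate reader, at rest and four minutes after thapsigargin emptied calcium stores; entry-to-rest ratio filled for only some wells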. Reading the numbers: calcium entry signal: higher = stronger calcium signal after store depletion; entry to resting ratio: higher = more calcium entry relative to resting level; resting calcium signal: higher = higher resting calcium signal. Hit rule: 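Hit if the duplicate-averaged plate z-score for entry over resting signal is under −3; wells with weak total dye signal (Fmax z < −2) or more than 5 off-targets removed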. Meaning of the calls: active = strongly reduced calcium entry; inactive = no strong reduction.
In all, the deposit lists about 23,000 reagents; below is an unselected part of those that have a named target and a result. Over the whole deposit, 75 (0.33%) are marked active. 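Raw plate signals without normalisation; calls rest on plate z-scores that were not deposited; ratio present for only 364 wells.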 Unmarked entries are inactive. The numbers tell different reagents against one gene apart. Names joined by + are all predicted targets of the reagent. Not stated in the record: the dose of the treatment.

gene knocked down,reagent,"calcium entry signal, replicate 1 (fluorescence units)","calcium entry signal, replicate 2 (fluorescence units)",entry to resting ratio,"resting calcium signal, replicate 1 (fluorescence units)","resting calcium signal, replicate 2 (fluorescence units)"
CG11076,1,3.56e7,5.77e7,1.9,1.86e7,2.55e7
mtDNA-helicase,1,3.45e7,5.53e7,,1.74e7,2.28e7
serp,1,3.17e7,4.76e7,,1.60e7,2.20e7
serp,2,3.50e7,5.10e7,,1.73e7,2.18e7
CG10947,1,3.90e7,,,2.22e7,
prage,1,3.44e7,4.99e7,2.1,1.67e7,2.09e7
prage,2,2.34e7,2.44e7,,1.53e7,1.41e7
prage,3,3.48e7,5.78e7,2,1.78e7,2.27e7
prage,4,3.91e7,4.89e7,2.1,1.86e7,2.01e7
heix,1,3.69e7,,,2.07e7,

Laid out differently: results already given.
gene knocked down	reagent	calcium entry signal, replicate 1 (fluorescence units)	calcium entry signal, replicate 2 (fluorescence units)	entry to resting ratio	resting calcium signal, replicate 1 (fluorescence units)	resting calcium signal, replicate 2 (fluorescence units)
CG11076	1	3.56e7	5.77e7	1.9	1.86e7	2.55e7
mtDNA-helicase	1	3.45e7	5.53e7		1.74e7	2.28e7
serp	1	3.17e7	4.76e7		1.60e7	2.20e7
serp	2	3.50e7	5.10e7		1.73e7	2.18e7

More reagents follow:
gene knocked down,reagent,"calcium entry signal, replicate 1 (fluorescence units)","calcium entry signal, replicate 2 (fluorescence units)",entry to resting ratio,"resting calcium signal, replicate 1 (fluorescence units)","resting calcium signal, replicate 2 (fluorescence units)"
Chd1,1,3.77e7,,,2.00e7,
Pp4-19C,1,3.64e7,3.23e7,,1.87e7,1.67e7
Pp4-19C,2,3.68e7,4.06e7,,2.27e7,2.07e7
Pp4-19C,3,3.53e7,3.36e7,,1.87e7,1.71e7
tplus3a + tplus3b,1,3.12e7,5.89e7,,1.46e7,2.24e7
Nak,1,4.68e7,,,2.18e7,
CG8138,1,2.83e7,4.90e7,,1.44e7,6.79e7
Ras64B,1,4.17e7,4.01e7,,2.02e7,1.84e7
CG13800 (retired record),1,3.53e7,4.44e7,,1.70e7,1.92e7
dgo,1,4.37e7,4.34e7,,1.89e7,1.92e7
Cpr47Eg,1,2.64e7,3.99e7,,1.31e7,1.78e7
CG30274,1,4.05e7,4.32e7,,2.14e7,2.05e7
Lsm11,1,3.54e7,3.54e7,,1.86e7,1.70e7
CG13041,1,3.66e7,4.36e7,,1.77e7,2.00e7
